Measurements taken from patent US20260209332A1 (SORRISO PHARMACEUTICALS, published 2026).
These are yes or no findings as the source states them, for the method shown. Some binding calls cover weakened binding; strength is not graded here.

Amino acid sequences for entries named in this document (tags omitted). A change or cut given only in a name is not applied to a line headed by its entry. Residues count along the entry.
UniProt Q5VWK5, residues 24-353: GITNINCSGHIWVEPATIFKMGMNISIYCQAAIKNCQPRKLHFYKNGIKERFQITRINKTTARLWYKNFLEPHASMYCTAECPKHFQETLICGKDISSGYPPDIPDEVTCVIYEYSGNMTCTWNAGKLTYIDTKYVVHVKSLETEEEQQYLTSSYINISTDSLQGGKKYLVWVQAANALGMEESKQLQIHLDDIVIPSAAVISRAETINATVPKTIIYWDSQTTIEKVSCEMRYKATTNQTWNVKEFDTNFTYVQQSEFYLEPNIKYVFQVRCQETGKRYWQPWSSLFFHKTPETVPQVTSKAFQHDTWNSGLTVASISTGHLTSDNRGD
UniProt Q9NPF7: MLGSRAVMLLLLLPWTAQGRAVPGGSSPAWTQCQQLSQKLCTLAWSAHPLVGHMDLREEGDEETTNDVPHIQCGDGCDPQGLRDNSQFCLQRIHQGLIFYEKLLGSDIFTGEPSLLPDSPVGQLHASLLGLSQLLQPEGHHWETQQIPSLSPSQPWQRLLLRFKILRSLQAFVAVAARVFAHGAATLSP

Target: IL-23 receptor (UniProt Q5VWK5)
Assay: IL-23/IL-23R ELISA, IL-23 alone without inhibitor; concentration not shown

- binding: binds
Substance: interleukin-23 (IL-23) (from UniProt Q9NPF7 20-189; P29460 23-328) (ligand)
